Test results: PubChem BioAssay AID493014 (National Center for Advancing Translational Sciences (NCATS), 2011)
This is one part of the list. These are further read-outs of the screen, such as a control signal, another cell line or another target. No call is given for them. The list favours compounds with an active or inconclusive main result. Potencies come from curve fits of mixed quality, noted in brackets.

Experiment: qHTS Assay to Find Inhibitors of Chronic Active B-Cell Receptor Signaling
Conditions: ABC-DLBCL IkBa-CBG/CBR reporter, luminescence ratio (green luciferase fused to IkBa over red control in TMD8 lymphoma cells), 4 h
Method in brief: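 Doxycycline induced both beetle luciferases in TMD8 lymphoma cells; IKK-driven degradation limits the IkappaBalpha-fused green signal, while red luminescence normalises for cell number and nonspecific effects. Compounds tested up to 46 uM, 4 hrs.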

[1] = measured here: CBR red luminescence, cell number
[2] = measured here: IkBa-CBG green luminescence

SMILES	AC50 [1]	AC50 [2]
COc1ccc(Nc2nnc(SCC(=O)NC3CCS(=O)(=O)C3)s2)cc1 (stereo unspecified)	32.6 µM [rising, partial curve, poor fit]	
O=c1[nH]c(=S)[nH]c2sc3c(c12)CCCCCC3	35.5 µM [rising, partial curve, poor fit]	
CCN1C(=O)/C(=C/c2ccc(N3CCCC3)cc2)NC1=S	2.91 µM [rising, full curve, poor fit]	
O=C(CNc1ccccc1C(=O)O)c1ccccc1	35.5 µM [falling, single point]	
COc1cccc(Nc2ccc(N3CCCCC3)cc2)c1OC	0.58 µM [rising, partial curve, poor fit]	
CCCN(CCC)S(=O)(=O)c1ccc(C(=O)N2CCC(=O)c3ccccc32)cc1	2.51 µM [rising, partial curve]	
COc1cc2c(cc1OC)C(c1ccc(-c3ccc(Cl)c(Cl)c3)o1)=NCC2	23.1 µM [falling, single point]	
COc1ccc(OC)c(NC(=S)NCC(c2cccnc2)N2CCOCC2)c1 (stereo unspecified)	3.55 µM [falling, single point]	
Cc1ccc(/C(O)=C2/C(=O)C(=O)N(CCN3CCOCC3)C2c2ccccn2)cc1 (stereo unspecified)	0.092 µM [rising, full curve, poor fit]	
CC1(c2ccccc2)NC(=O)N(CC(=O)Nc2ccc3c(c2)OCO3)C1=O (stereo unspecified)	0.058 µM [rising, full curve, poor fit]	
C[C@@H]1CN([C@H](C)CO)C(=O)c2cc(NC(=O)Cc3cn(C)c4ccccc34)ccc2O[C@H]1CN(C)S(=O)(=O)c1ccc(F)cc1	0.092 µM [rising, full curve, poor fit]	
CCCCOc1ccc(C(=O)N/N=C/c2ccc(OCCN3CCCCC3)c(OC)c2)cc1	6.51 µM [falling, single point]	0.92 µM [rising, full curve, poor fit]
Cc1ccc(C(=O)COC(=O)CNC(=O)c2ccccc2)s1	29.1 µM [rising, single point]	
COc1cc(/C=C2\SC(=Nc3ccccc3OC)NC2=O)ccc1O	0.316 µM [falling, full curve, poor fit]	0.562 µM [rising, full curve, poor fit]
COc1ccc(OC)c(Nc2nc(-c3sc(NC(=O)C(C)(C)C)nc3C)cs2)c1	3.55 µM [falling, partial curve, poor fit]	
O=C1/C(=C\c2ccc(Br)cc2)SC(=S)N1NS(=O)(=O)c1ccccc1	0.316 µM [rising, full curve, poor fit]	
O=C(Nc1ccc(N2CCOCC2)c(Cl)c1)c1ccc([N+](=O)[O-])o1	3.16 µM [falling, full curve, poor fit]	
CCOC(=O)Nc1nc(-c2ccc(F)cc2F)cs1	6.51 µM [rising, single point]	
CNS(=O)(=O)c1cc(Cl)ccc1Sc1ccccc1C(=O)O	35.5 µM [rising, single point]	
O=C(Nc1ccccc1C(=O)N1CCN(CCO)CC1)c1cccc([N+](=O)[O-])c1	35.5 µM [falling, single point]	
O=C(NNC1=NS(=O)(=O)c2ccccc21)c1ccccc1Cl	10 µM [falling, partial curve]	

SMILES	AC50 [1]	AC50 [2]
O=C(Nc1ccccc1Cl)c1cccc(COc2cc(Cl)ccc2Cl)c1	23.1 µM [rising, partial curve, poor fit]	
O=C(O)CN1C(=O)/C(=C\c2ccccc2OCc2ccc(Cl)cc2Cl)SC1=S	17.8 µM [falling, single point]	
COc1nc(OC)nc(N2CCC(NC(=O)C(Cc3ccc(C(C)C)cc3)NC(C)=O)CC2)n1 (stereo unspecified)	0.092 µM [rising, full curve, poor fit]	
CN1C2C(Br)CCCCN2c2ccc(F)cc2S1(=O)=O (stereo unspecified)	35.5 µM [falling, single point]	
CN1C(=O)C(c2nnc(Nc3cccc4ccccc34)s2)C2CC1(C)Oc1ccccc12 (stereo unspecified)	25.9 µM [falling, single point]	
COc1ccc(S(=O)(=O)N(C)C[C@@H]2Oc3ccc(NS(=O)(=O)c4cn(C)cn4)cc3C(=O)N([C@@H](C)CO)C[C@@H]2C)cc1	29.1 µM [rising, single point]	
CC(C)(C)c1ccc(S(=O)(=O)NCC(=O)Nc2ccc(-c3nc4ccccc4s3)cc2)cc1	0.58 µM [rising, full curve, poor fit]	
COC(=O)N1C(=O)[C@@](CC(C)C)(c2ccccc2)N1C(=O)OC	7.08 µM [falling, full curve, poor fit]	
CCOc1cc(C(=O)Nc2cccc3ncccc23)cc(OCC)c1OCC	7.31 µM [rising, partial curve, poor fit]	
COC(=O)c1ccccc1NC(=O)NC1CCCCC1	35.5 µM [falling, partial curve, poor fit]	
COCc1cc(=O)[nH]c(Nc2nc3ccccc3o2)n1	0.891 µM [falling, full curve]	
CCOC(=O)c1cc(-c2cc3ccccc3o2)n[nH]1	1.3 µM [rising, partial curve]	
CCCn1c(N2CCN(C(=O)Nc3ccccc3)CC2)nc2ccccc21	35.5 µM [falling, partial curve, poor fit]	
CCNC(=O)CC1C(=O)N(c2ccc(C)cc2)C(=O)N1CCc1ccc(OC)c(OC)c1 (stereo unspecified)	7.08 µM [rising, partial curve, poor fit]	
CC(=O)c1ccc(NC(=O)CCCN2C(=O)C(c3ccccc3)Oc3cccnc32)cc1 (stereo unspecified)	2.82 µM [rising, single point]	
Cc1ccc(/C=N/NC(=O)c2cc(-c3ccc(C)o3)[nH]n2)cc1	0.282 µM [falling, full curve, poor fit]	
O=C(COC(=O)c1ccccc1[N+](=O)[O-])NCCCc1ccccc1	35.5 µM [rising, partial curve, poor fit]	
CC(C)OC(=O)C(C)Nc1n[nH]c(=S)[nH]c1=O (stereo unspecified)	35.5 µM [rising, single point]	
Cc1cccc(C)c1NC(=O)N1CCN(c2nc3ccccc3s2)CC1	6.51 µM [rising, single point]	
N#Cc1c2ccc(O)cc2n2ccccc12	22.4 µM [falling, single point]	12.6 µM [rising, single point]
Oc1ccccc1Nc1nc(NCc2ccccc2)c2ccccc2n1	31.6 µM [falling, single point]	

Part of the list above in order of count of non-hydrogen atoms, high to low.
SMILES	AC50 [1]	AC50 [2]
COc1ccc(Nc2nnc(SCC(=O)NC3CCS(=O)(=O)C3)s2)cc1 (stereo unspecified)	32.6 µM [rising, partial curve, poor fit]	
O=C(NNC1=NS(=O)(=O)c2ccccc21)c1ccccc1Cl	10 µM [falling, partial curve]	
CC(C)OC(=O)C(C)Nc1n[nH]c(=S)[nH]c1=O (stereo unspecified)	35.5 µM [rising, single point]	

Remaining list, next part.

SMILES	AC50 [1]	AC50 [2]
Cc1ccc(NC(=S)NC(=O)c2ccccc2)cc1NC(=S)NC(=O)c1ccccc1	1 µM [falling, full curve]	
CCOC(=O)c1csc(NC(=O)c2cccs2)n1	15.8 µM [falling, single point]	
Cc1cc(/C=C(\C#N)C(=O)NC2CCCCCC2)c(C)[nH]1	6.51 µM [falling, partial curve]	
CC(Sc1nnc(CC(C)c2ccccc2)n1N)C(N)=O (stereo unspecified)	0.708 µM [rising, partial curve, poor fit]	
O=C(Cn1nc(-c2ccccc2)ccc1=O)Nc1ccc(N2CCN(C(=O)c3cccs3)CC2)cc1	0.282 µM [rising, full curve, poor fit]	
S=C(Nc1ccccc1Cl)N1CCCC(c2ccccc2)=N1	0.501 µM [falling, full curve]	
COC(C(=O)N/N=C(\C)c1ccc(C(C)(C)C)cc1)c1ccccc1 (stereo unspecified)	15.8 µM [rising, partial curve, poor fit]	
O=C(Nc1ccc(Cl)c(NC(=O)c2cccs2)c1)c1ccco1	11.2 µM [falling, partial curve, poor fit]	
COc1cc(C#Cc2ccc3cc(CCO)oc(=O)c3c2)cc(OC)c1	0.0731 µM [rising, full curve, poor fit]	
CC(C)c1ccc(C(=O)Nc2ccc(N3CCOCC3)cc2)cc1	1.3 µM [rising, full curve, poor fit]	
CCCCN(C)c1nc(-c2ccco2)c2c(c1C#N)CC(C)(C)OC2	11.2 µM [falling, partial curve, poor fit]	5.62 µM [rising, full curve]
COc1cccc(/C=N/Nc2cc(N3CCOCC3)ncn2)c1O	0.282 µM [falling, full curve, poor fit]	
CCCCN(CCCC)CCn1cnc2c([nH]c3ccc(OC)cc32)c1=O	5.17 µM [rising, partial curve, poor fit]	
CC(C)c1ccc(N=Cc2c(O)c3ccccc3oc2=O)cc1	6.31 µM [falling, partial curve]	
Cc1ccc(C(=O)NC(=S)NCC(=O)c2ccccc2)cc1	10 µM [rising, partial curve, poor fit]	
CCCCNC(=O)COC(=O)C1CCN(S(=O)(=O)c2ccc3c(c2)OCCO3)CC1	4.11 µM [falling, full curve]	
O=C(Nc1ccc2[nH]ccc2c1)c1cccs1	35.5 µM [falling, single point]	
c1ccc(N=C(c2cccs2)N2CCOCC2)cc1	5.17 µM [falling, partial curve, poor fit]	
CCCC(=N)C1=C(O)CC(CC(C)SCC)CC1=O (stereo unspecified)	17.8 µM [rising, single point]	
O=C(Oc1c(CN2CCOCC2)cc(Cl)c2cccnc12)c1ccccc1Cl		2.24 µM [falling, partial curve]
